Key:
Type in all cases: functional
Staphylococcus aureus = assay: Antibacterial activity Staphylococcus aureus at 40 ug/disc after 24 hrs by agar disc diffusion method
Procedure, shortened: (§1)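 Agar disc diffusion. Strains were grown in Mueller Hinton broth for 18–24 h at 37 °C. The bacterial suspension was spread on Mueller Hinton agar, and dried loaded discs were placed on it once the plates were dry. Gentamycin and […] reference discs carried 40 mcg/disc from 1 mg/ml solutions. Plates were incubated 24 h at 37 °C, and clear inhibition zones were measured in mm.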

Pseudomonas aeruginosa = assay: Antibacterial activity Pseudomonas aeruginosa at 40 ug/disc after 24 hrs by agar disc diffusion method; procedure, shortened: as §1
Escherichia coli = assay: Antibacterial activity Escherichia coli at 40 ug/disc after 24 hrs by agar disc diffusion method; procedure, shortened: as §1

## GENTAMICIN
Staphylococcus aureus
  inhibition zone (IZ): 7 mm
Pseudomonas aeruginosa
  inhibition zone (IZ): 17 mm
Escherichia coli
  inhibition zone (IZ): 11 mm
